Experimental data from PubChem BioAssay AID540276 (National Center for Advancing Translational Sciences (NCATS), 2011).
Values joined by “and” are separate entries in the source; they are usually repeats but may differ in a detail not shown here. Identical values can stand only once. Among all 300,000 compounds or so, about 5,400 (1.8%) were called active. Inconclusive means that the source gave no clear call. Such entries were picked first, then a sample of the others. Calls come from the whole dose curve; tested in HEK293 cells. Where the call is inconclusive, the potency comes from a doubtful curve fit.

experiment: qHTS for inhibitors of binding or entry into cells for Marburg Virus; conditions: Marburg virus pseudotyped entry inhibition, cell reporter; series mostly up to 37.8 µM
Potency is the fitted concentration of half-maximal effect.

Structure (SMILES) | Potency
COc1ccc(NC(=O)Cn2cccc2)cc1Cl | inactive
Cc1ccccc1Nc1nc(N)nc(CSc2ccccc2)n1 | inconclusive: 0.58 µM [activator, full curve]
O=C(Nc1ccc(Cl)cc1)c1cncs1 | inconclusive: 0.126 µM [activator, full curve, poor fit]
CC(NC(=O)c1ccc(F)cc1)c1ccc2c(c1)CCCC2 (stereo unspecified) | inactive
Cc1cccc(C(=O)NC(=S)N2CCc3ccccc3C2)c1 | inconclusive: 17.8 µM [inhibitor, single point]
CCN1CCN(c2ccc(S(=O)(=O)N3CCOCC3)cc2NC(=O)C(C)Oc2cccc(Cl)c2)CC1 (stereo unspecified) | inconclusive: 35.5 µM [inhibitor, single point]
COc1ccc(-c2cc(C(=O)OCC(=O)N3CCCC3)c3ccccc3n2)cc1 | inactive
CCOc1ccc(NC(=O)C2C3C=CC4(O3)C2C(=O)N(Cc2cccnc2)C4C(=O)NC2CCCCC2)cc1 (stereo unspecified) | inactive
Cc1nnc(SCC(=O)N2CC(C)OC(C)C2)n1-c1ccccc1 (stereo unspecified) | inactive
Cc1nn(-c2ccccc2)c(C)c1CN | inconclusive: 1.58 µM [activator, full curve, poor fit]
O=S(=O)(Nc1nccs1)c1ccc(Nc2nnc(-c3ccccc3)c3ccccc23)cc1 | inconclusive: 6.31 µM [activator, single point]
COc1cccc(NP(=O)(Oc2ccccc2)Oc2ccccc2)c1 | inconclusive: 2.24 µM [inhibitor, partial curve, poor fit]
COc1ccc(-n2c(-c3ccco3)nc3c(cnn3-c3ccccc3C)c2=O)cc1 | inactive and inconclusive: 7.08 µM [inhibitor, partial curve, poor fit]
O=C(CSc1nnc(Cc2ccccc2)o1)N1CCc2ccccc21 | inactive
Cc1ccc([C@H]2C[C@@H](n3cc(-c4ccc(F)cc4)nn3)[C@H](O)CN2CC2CCCCC2)cc1 | inconclusive: 35.3 µM [inhibitor, partial curve, poor fit]
CC1CCC2(CC1)NC(=O)N(CC(=O)N1CCN(S(=O)(=O)c3ccc4c(c3)CCC4)CC1)C2=O (stereo unspecified) | inactive
O=C(OCC(=O)N1CCCC1=O)c1nc(Cl)ccc1Cl | inconclusive: 12.6 µM [activator, partial curve, poor fit]
CS(=O)(=O)c1ccc2nc(NC(=O)CN3CCOCC3)sc2c1 | inactive
N#CCC(=O)N/N=C/c1ccc(Cl)cc1 | inactive
CC(C)(C)c1ccc(-n2nc(C(N)=O)c(O)cc2=O)cc1 | inconclusive: 3.55 µM [activator, partial curve, poor fit]
CS(=O)(=O)c1ccc(C(=O)OCC(=O)NC2CCS(=O)(=O)C2)cc1[N+](=O)[O-] (stereo unspecified) | inconclusive: 6.31 µM [inhibitor, partial curve, poor fit]
COc1ccc(CC(=O)N2CCN(c3cccc(Cl)c3)CC2)cc1OC | inconclusive: 7.08 µM [inhibitor, partial curve, poor fit]
COc1ccccc1NC(=O)c1ccc2oc(=O)c(S(=O)(=O)c3ccccc3)cc2c1 | inactive
N#Cc1ccccc1NC(=O)COc1ccc2c(c1)OCO2 | inactive

Structure (SMILES) | Potency
COc1cc(C(C)=O)ccc1OCCCN1CCC(Cc2ccccc2)CC1 | inconclusive: 8.91 µM [inhibitor, partial curve, poor fit]
O=C(CCOc1ccccc1)Nc1ccnn1C1CCN(Cc2ccc(O)cc2)CC1 | inactive
COc1ccc(C(=O)NCCn2cc(SCc3cc(C)ccc3C)c3ccccc32)cc1 | inconclusive: 35.5 µM [inhibitor, single point]
CC(NC(=O)c1cccc(C(F)(F)F)c1)C(c1ccccc1)N1CCOCC1 (stereo unspecified) | inactive
O=C(NC(=S)N1CCCC(C(F)(F)F)C1)c1ccc(F)cc1 (stereo unspecified) | inactive
Cc1cccc(C)c1OCc1cc(C(=O)N(Cc2nccn2C)C(C)C)no1 | inactive
CCOc1ccccc1NC(=S)Nc1ncccc1C | inconclusive: 5.62 µM [inhibitor, full curve, poor fit]
O=C(O)CSc1nc2ccccc2n1Cc1ccccc1 | inconclusive: 1.26 µM [inhibitor, single point]
COCCn1c(=NC(=O)c2ccccc2[N+](=O)[O-])sc2cc(S(C)(=O)=O)ccc21 | inconclusive: 2.82 µM [activator, partial curve, poor fit]
COC(=O)c1cccc(NC2CC(=O)N(c3ccc(OC)c(OC)c3)C2=O)c1 (stereo unspecified) | inactive
COc1ccc2c(c1)C(=O)OC2CC(=O)O (stereo unspecified) | inactive
O=C(Nc1nc2ccccc2[nH]1)c1ccc([N+](=O)[O-])cc1 | inactive
COc1ccc(OCC(=O)OC(C)CN2CCOCC2)cc1 (stereo unspecified) | inactive
Cc1ccc(C(C)C)c(OCCCn2c(=O)oc3ccccc32)c1 | inactive
COc1cc2c(cc1OC)C(C)N(C(=O)Nc1ccccc1)CC2 (stereo unspecified) | inconclusive: 1.12 µM [inhibitor, full curve]
Cc1cc(NC(=O)CC2CCCC2)n(-c2nc3ccccc3[nH]2)n1 | inconclusive: 35.5 µM [inhibitor, single point]
O=S(=O)(c1ccc(-c2csc(-c3cccnc3)n2)cc1)N1CCOCC1 | inconclusive: 35.5 µM [inhibitor, single point]
O=C(CSc1nnc(CCc2ccccc2)n1-c1ccc(Cl)cc1)NCc1ccccc1 | inconclusive: 28.2 µM [inhibitor, single point]
Cc1ccc(CN(Cc2cccn2-c2nnc(N3CCCC3=O)s2)C(=O)Nc2ccccc2C(F)(F)F)cc1 | inconclusive: 22.4 µM [inhibitor, partial curve, poor fit]
COc1ccc(-n2c(C)cc(C(=O)CSc3nnc(-c4cccs4)o3)c2C)cc1 | inconclusive: 32.6 µM [inhibitor, single point]
COc1ccc(C(=O)N/N=C/c2ccc(OC)c(COc3c(F)c(F)cc(F)c3F)c2)cc1 | inactive
Cn1c(=O)n(C)c2cc([N+](=O)[O-])c(N3CCN(C(=O)C(C)(C)C)CC3)cc21 | inconclusive: 1.26 µM [inhibitor, full curve, poor fit]
CC1CCCCN1Cc1nc2ccccc2c(=O)[nH]1 (stereo unspecified) | inactive
COc1ccc(OC)c(NC(=O)CC2SC(=NCc3ccccc3)NC2=O)c1 (stereo unspecified) | inconclusive: 35.5 µM [inhibitor, single point]

Structure (SMILES) | Potency
O=C(CSc1cccc[n+]1[O-])c1ccc(Cl)cc1 | inconclusive: 14.1 µM [activator, single point]
Cc1nnc(Nc2ccc(S(N)(=O)=O)cc2)c2ccccc12 | inactive
C=C(C)Cn1c(=O)n(CC2CS2)c2ccccc21 (stereo unspecified) | inconclusive: 0.461 µM [inhibitor, full curve]
COc1cccc(CC2(CO)CCN(CC3=CC[C@H]4C[C@@H]3C4(C)C)CC2)c1 | inconclusive: 14.1 µM [inhibitor, single point]
Cc1ccc(NC(=O)c2cnn(-c3ccccc3)c2C)cc1C | inconclusive: 3.98 µM [inhibitor, partial curve, poor fit]
Cc1ccc(CNC(=O)Cn2c(=O)n(Cc3ccccc3)c(=O)c3sc4ccccc4c32)cc1 | inactive
CCc1cccc(NC(=O)CSc2nc3ccsc3c(=O)n2CC)c1 | inconclusive: 3.16 µM [inhibitor, single point]
Nc1c(-c2ccccc2)cnn1-c1cccc(Cl)c1 | inconclusive: 1.26 µM [activator, partial curve, poor fit]
O=C(O)c1cccc(NC(=O)c2ccc3c(c2)C(=O)N(C2CCCCC2)C3=O)c1 | inactive
CCOC(=O)C(C)Sc1ncc(-c2ccccc2)cn1 (stereo unspecified) | inconclusive: 12.6 µM [activator, single point]
COc1cc(C2NCC(c3ccc(Cl)cc3Cl)c3c2[nH]c2ccccc32)cc(OC)c1OC (stereo unspecified) | active: 15.8 µM
CSc1ccccc1OCc1cc(C(=O)N(C)Cc2ccc(C)o2)no1 | inconclusive: 2.24 µM [activator, partial curve, poor fit]
CC(C)(C)c1ccc(C(=O)Nc2c3c(nn2C(C)(C)C)CS(=O)(=O)C3)cc1 | inconclusive: 12.6 µM [inhibitor, partial curve, poor fit]
CCOC(=O)N1CCc2c(sc3nc(SC(C)C)n(N)c(=O)c23)C1 | inconclusive: 11.2 µM [inhibitor, partial curve, poor fit]
COc1ccccc1NC(=O)N1CCN(c2ccccc2F)CC1 | inconclusive: 0.0052 µM [activator, full curve, poor fit]
O=S(=O)(c1ccc(Cl)cc1)c1nc(-c2ccccc2)oc1N1CCN(c2ccccc2)CC1 | inconclusive: 7.08 µM [activator, partial curve, poor fit]
COc1ccc(C)cc1-n1c(=O)c2ccccc2c2ccccc2c1=O | inactive
COC(=O)c1cc(C(=O)OCC(=O)N(C)c2ccccc2)cc([N+](=O)[O-])c1 | inactive
Cc1ccc(NC(=O)CSC2=NN3CCCC(=O)N=C3S2)cc1Cl | inactive
CCOC(=O)c1cccc(NC(=O)CSc2nc3cccnc3n2C)c1 | inconclusive: 17.8 µM [inhibitor, partial curve, poor fit]
CC(C)NC(=O)/C(C#N)=C/c1cccc(NC(=O)c2ccccc2Cl)c1 | inconclusive: 29.1 µM [inhibitor, single point]
CCOc1ccc(S(=O)(=O)N2CCOCC2)cc1NC(=O)CN1C(=O)NC(CC)(c2ccccc2)C1=O (stereo unspecified) | inactive
Cc1nc2ccccc2n1C(=O)c1ccc(Cl)cc1[N+](=O)[O-] | inactive
